Test results reported in US4772596A, “Dihydropyridine derivatives, their preparation and their use” (Sankyo Company Limited, priority 1986, dated 1988).

System: spontaneously hypertensive rats of the SHR strain
Experiment: Antihypertensive activity in conscious spontaneously hypertensive rats (blood pressure and heart rate)
Conditions: 3 mg/kg, po
Method: The test animals were spontaneously hypertensive rats of the SHR strain, each aged about 15 weeks. The antihypertensive activities of the test compounds were determined in these rats as follows.
Each animal was anaesthetized with sodium pentobarbital (50 mg/kg, intraperitoneally) and a polyethylene cannula was inserted into the abdominal aorta by the method of Weeks and Jones [J. R. Weeks and J. A. Jones, Proc. Soc. Exptl. […] The other end of the cannula left the animal's body at, and was fixed to, the neck. About 1 week after this surgery, when the animal had completely recovered from surgical stress, the free end of the aortic cannula was connected to a sphygmomanmeter to measure blood pressure and heart rate of the animal directly in the conscious, aparalytic and unrestrained state.
At this time, a test compound suspended in a 0.3% w/v aqueous carboxymethylcellulose solution was administered orally in the dose shown in the following Table 8.
Tmax : the time in hours after administration of the compound under test before the maximum change in blood pressure was recorded;
To 0.5 max : the time in hours after administration of the compound under test which is required for the blood pressure to return to one half of its maximum value;

SMILES: COC(=O)C1=C(C)NC(C)=C(C(=O)OC)C1c1ccccc1[N+](=O)[O-] [nifedipine, reference compound]
- T0.5 max (time after administration for the blood pressure to return to one half of its maximum value): 7.0 h
- Tmax (time after administration before the maximum change in blood pressure): 18 min
